Experimental data as given in PubChem BioAssay AID2685 (National Center for Advancing Translational Sciences (NCATS), 2010).
Some of the results follow. The main result of the screen is listed elsewhere. These columns were measured beside it and carry no call. The list favours compounds with an active or inconclusive main result. Potencies come from curve fits of mixed quality, noted in brackets.

Assay: qHTS Assay for Lipid Storage Modulators in Drosophila S3 Cells;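 for cell number change: cells counted by Cell Tracker Red CMTPX staining in the red channel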
Settings: BODIPY lipid droplet fluorescence, 18-24 h; for cell number change: measured here: cell count max response, cells fed with added oleic acid
How it was run: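 Laser-scanning cytometry quantifies lipid droplet accumulation (500–530 nm total intensity; droplet/cell object ratio) in oleic acid-fed (400 uM added) Drosophila S3 cells treated with a concentration series. 20 uM Triacsin C defined 100% inhibition.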

[1] = measured here: lipid fluorescence (Fed channel) AC50, cells fed with added oleic acid
[2] = measured here: cell number channel AC50, cells fed with added oleic acid

SMILES | cell number change | AC50 [1] | AC50 [2]
COc1ccc(CCNC(=O)CCNC(=O)c2ccco2)cc1OC | -12.7% | 6.51 µM [falling, single point] | –
Cc1cnc(NC(=O)c2cc3c(C)nn(-c4ccccc4)c3s2)s1 | – | 0.651 µM [rising, partial curve, poor fit] | 0.259 µM [rising, full curve]
CCOC(=O)Nc1cc(OCC)c(NC(=O)C2CC2)cc1OCC | -0.625% | – | –
COc1cccc(C2N(c3cccc(Cl)c3)C(=O)C3CCCN32)c1 (configuration not stated) | 56.7% | – | 25.9 µM [rising, single point]
CCCC1(c2ccccc2)NC(=O)N(CC(=O)N(C)Cc2c(F)cccc2Cl)C1=O (configuration not stated) | 21.7% | – | –
CCOC(=O)c1ccc(S(=O)(=O)N2CCN(CC(=O)NC(=O)NC(C)(C)C)CC2)cc1 | 25% | – | –
Cc1cc2c(=O)n(Cc3ccco3)c(SCC(=O)NCc3ccco3)nc2s1 | 35.8% | 6.51 µM [rising, single point] | 4.61 µM [rising, full curve]
COc1cc(C(=O)Nc2ccccc2N2CCN(S(C)(=O)=O)CC2)cc(OC)c1OC | 6.12% | 29.1 µM [rising, single point] | –
CCOC(=O)N1CCN(C(=O)c2ccc3c(c2)N(C)C(=O)/C(=C\c2ccc(OCC)c(OC)c2)S3)CC1 | -0.33% | 2.31 µM [falling, partial curve] | –
COc1ccc(CCN(C)c2ccc(S(=O)(=O)N3CCCC3)cc2[N+](=O)[O-])cc1OC | 16.5% | 0.146 µM [rising, partial curve, poor fit] | –
COc1ccc(C2=NS(=O)(=O)N(C)C(C(=O)NC3CCCCC3)=C2)cc1OC | -8.36% | – | –
CN(C)C(=S)Nc1ccc2c(c1)OCO2 | 11.9% | 0.092 µM [falling, full curve, poor fit] | –
Cc1cc(Cl)ccc1OCC(=O)NNC(=O)C1CSC2(C)CCC(=O)N12 (configuration not stated) | -2.41% | – | –
Cc1cc(C)n(-c2ccc(C(=O)Nc3ccc(S(=O)(=O)N(C)C)cc3)cc2)n1 | 12.7% | 4.61 µM [rising, partial curve, poor fit] | –
COc1cc2c(C(=O)NCc3ccc4c(c3)OCO4)cn(C)c(=O)c2cc1OC | 8.09% | 20.6 µM [rising, single point] | –
CCOC(=O)c1cc(-c2ccccc2C)n(CC2CC(c3cccc([N+](=O)[O-])c3)=NO2)n1 (configuration not stated) | 9.31% | 4.11 µM [rising, single point] | –
O=C(CCl)Nc1cc(-c2ccccc2)nn1-c1ccccc1 | -128% | 18.4 µM [falling, partial curve] | 18.4 µM [falling, single point]
COc1ccc(C)cc1NC(=O)c1ccc2c(c1)OCO2 | -7.71% | 0.103 µM [rising, full curve, poor fit] | –
c1ccc(CSCCc2ccncc2)cc1 | – | 18.4 µM [rising, partial curve] | 6.51 µM [rising, single point]
CCCSc1nnc(-c2ccccc2N)c(=O)[nH]1 | -1.15% | 0.58 µM [falling, single point] | –

SMILES | cell number change | AC50 [1] | AC50 [2]
O=C(COC(=O)Cc1ccc(S(=O)(=O)N2CCOCC2)s1)NCCc1ccccc1 | 20.7% | 29.1 µM [rising, single point] | –
Cc1nnc(SCC(=O)NC2CCCC2)n1CCc1ccccc1 | 10.3% | – | –
Cc1ccc(S(=O)(=O)NCCC(=O)Nc2cc(S(=O)(=O)N(C)C)ccc2C)cc1C | -3.95% | 35.5 µM [falling, single point] | –
Cc1cccc(-n2c(C)cc(/C=N/n3cnnc3)c2C)c1 | -23.5% | 1.64 µM [falling, partial curve] | –
Cc1cccc(N2CCN(C(=O)NCc3ccc(F)cc3)CC2)c1C | -2.25% | 29.1 µM [rising, single point] | –
CN(CCc1nc2ccc(Cl)cc2[nH]1)Cc1nc(CC2CC2)no1 | 6.53% | 20.6 µM [rising, single point] | –
O=C1NC(=O)c2cc(NC(=O)c3cccc4ccccc34)ccc21 | 34.4% | – | –
CC(C)c1ccccc1OCC(=O)NN1C(=O)c2ccccc2C1=O | -10.8% | – | –
CCOc1ccccc1CNC(=O)CCN1C(=O)COc2ccccc21 | – | 2.91 µM [rising, single point] | –
Cc1cccc(NC2(C(F)(F)F)N=C3SCCN3C2=O)n1 (configuration not stated) | -16.1% | 8.2 µM [falling, partial curve] | 0.731 µM [falling, full curve, poor fit]
Cc1ccc(-c2ccc(=O)n(CC(=O)NCCCN3CCCCC3C)n2)cc1 (configuration not stated) | -36.9% | 18.4 µM [falling, single point] | 23.1 µM [falling, single point]
COc1ccc(C(CNC(=O)CNC(=O)c2cc(OC)c(OC)c(OC)c2)N2CCOCC2)cc1 (configuration not stated) | 0.641% | – | –
CCc1ccc(CN2CCC(n3nccc3NC(=O)c3cccc(F)c3)CC2)cc1 | 24.5% | 0.731 µM [rising, full curve, poor fit] | –
Cc1ccc(S(=O)(=O)N2CCCCC2)cc1NC(=O)CNc1ccc(C(F)(F)F)cc1 | 51% | 18.4 µM [rising, partial curve] | 20.6 µM [rising, single point]
O=C(O)c1ccc(NC(=S)NC(NC(=O)c2ccco2)C(Cl)(Cl)Cl)cc1 (configuration not stated) | -86.7% | 0.13 µM [falling, full curve, poor fit] | 16.4 µM [falling, partial curve]
CCOc1ccc(NC(=O)CSc2nc3c(c(=O)n2C)SC(C)C3)cc1 (configuration not stated) | – | 0.116 µM [rising, full curve, poor fit] | 1.84 µM [rising, partial curve, poor fit]
Cc1cc(C(=O)NCC2COc3ccccc3O2)c2ccccc2n1 (configuration not stated) | 20.5% | – | –
CC(C)N(CC#CCC(O)(c1ccccc1)c1ccccc1)CCO | 1.91% | 0.116 µM [falling, full curve, poor fit] | –
COc1cc(/C=C/C(=O)NNC(=O)c2cccc(S(=O)(=O)N(C)C)c2)cc(OC)c1OC | 0.803% | – | –
CCOC(=O)c1cc(CC)sc1NC(=O)c1cc([N+](=O)[O-])ccc1N1CCOCC1 | 18% | 6.51 µM [rising, single point] | –

Single values from the results shown:
COc1ccc(C(CNC(=O)CNC(=O)c2cc(OC)c(OC)c(OC)c2)N2CCOCC2)cc1 (configuration not stated) – cell number change: 0.641%
CCOc1ccccc1CNC(=O)CCN1C(=O)COc2ccccc21 – AC50 [1]: 2.91 µM [rising, single point]
Cc1cccc(NC2(C(F)(F)F)N=C3SCCN3C2=O)n1 (configuration not stated) – AC50 [2]: 0.731 µM [falling, full curve, poor fit]

Following part:

SMILES | cell number change | AC50 [1] | AC50 [2]
S=c1[nH]nc(Cn2nnc3ccccc32)n1-c1ccccc1 | 7.05% | – | –
Cc1sc2ncnc(N3CCN(CCOc4ccc(Cl)cc4)CC3)c2c1C | – | 2.06 µM [rising, partial curve] | –
CCN(CC)CCn1c(=S)[nH]c2cc(C(=O)NCc3ccccc3Cl)ccc2c1=O | – | 4.61 µM [falling, partial curve] | –
O=[N+]([O-])c1cc(C(F)(F)F)ccc1NN=C1CCCC1 | 121% | – | 20.6 µM [rising, partial curve, poor fit]
CN(C)S(=O)(=O)Oc1ccccc1C(=O)Nc1ccccc1Cl | 146% | 3.66 µM [falling, partial curve] | 29.1 µM [rising, single point]
CC1(C)CCC[C@]2(C)[C@H]3CC(=O)O[C@]3(C)CC[C@@H]12 | -4.17% | 0.082 µM [falling, partial curve, poor fit] | –
CC(=O)c1sc(Nc2nc3cc4c(cc3s2)OCO4)nc1C | 3.12% | 0.164 µM [rising, full curve, poor fit] | –
CCOC(=O)c1ccc(OS(=O)(=O)c2ccccc2)c(OC)c1 | 20.8% | 0.259 µM [rising, full curve] | –
CCn1c(Cc2ccc(OC)cc2)nnc1SCC(=O)NC1CCCCC1 | 6.14% | 0.651 µM [falling, partial curve] | –
CCn1c(SCC(=O)Nc2ccccc2C)nnc1-c1ccccc1O | 72% | 8.2 µM [rising, partial curve] | 7.31 µM [rising, partial curve]
COc1cccc(CNC(=O)CN2c3cccc4cccc(c34)S2(=O)=O)c1 | – | – | 2.31 µM [rising, partial curve, poor fit]
COc1cc(C(N)=O)cc(Br)c1OC | -4.56% | – | 0.13 µM [falling, full curve, poor fit]
CCOC(=O)C(NC(=O)CC(C)C)(Nc1sc2c(c1C(N)=O)CCCC2)C(F)(F)F (configuration not stated) | -60.6% | 5.8 µM [falling, partial curve] | 5.8 µM [falling, partial curve, poor fit]
O=C(C[n+]1cccc(Br)c1)c1ccc(-c2ccccc2)cc1 | – | – | 6.51 µM [rising, single point]
COc1ccc(CCNC(=O)C(=O)NCC2OCCN2C(=O)c2ccc(Cl)cc2)cc1OC (configuration not stated) | 17.3% | 29.1 µM [rising, single point] | –
COc1ccc(NC(=O)c2ccco2)c(NC(=O)c2ccc([N+](=O)[O-])cc2)c1 | 14.9% | 0.00411 µM [rising, full curve, poor fit] | 6.51 µM [rising, single point]
Nc1cc(Cl)ccc1N1CCOCC1 | 18.1% | – | –
CCOC(=O)CSc1nc2sc3c(c2c(=O)[nH]1)CC(C)(C)OC3 | 0.0566% | 0.411 µM [falling, partial curve, poor fit] | –
Cc1ncc(N=Nc2ccccc2Cl)c(-c2ccccc2)n1 | -59.5% | 20.6 µM [falling, single point] | 25.9 µM [falling, partial curve]
COc1ccc(C2=NOC(C(=O)NCc3ccccn3)C2)cc1 (configuration not stated) | – | 3.26 µM [rising, partial curve] | –
